From the supplement of paper PMC12282887
Values are raw readings; no control value is given beside them.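 For antimicrobials the highest concentration approximated the MIC. Most other compounds topped out at 500 µM, and known inducer-like compounds reached up to 1 mM. Inocula for deletion strains were tenfold smaller, and any well growing below 10% of the overall median was considered non-growing.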

Tested on: Escherichia coli BW25113
Assay: growth (OD600 area under curve, 8 h) (OD600 x h); higher = more growth
Protocol: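 E. coli BW25113 reporter strains (wild type, ΔmarA, ΔsoxS, Δrob, each carrying one of 8 lux reporter plasmids) were grown in 40 µl LB in 384-well plates at 37°C, 800 rpm, with each compound at 4 two-fold concentrations, in biological duplicates. Growth is the baseline-corrected OD600 area under the curve over 8 h (0-8 h WT, 1-9 h deletion strains).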

C[C@H]1COc2c(N3CCN(C)CC3)c(F)cc3c(=O)c(C(=O)O)cn1c23 [Levofloxacin]
growth
Conditions | reporter plasmid: EVC | reporter plasmid: acrABp | reporter plasmid: marRABp | reporter plasmid: micFp | reporter plasmid: ompFp | reporter plasmid: robp | reporter plasmid: soxSp | reporter plasmid: tolCp
0.0045 µg/ml, genetic background: wild type | 2.73 | 2.55 | 2.82 | 3.09 | 2.79 | 2.73 | 2.973 | 2.74
0.0045 µg/ml, genetic background: ΔmarA | 2.76 | 3.41 | 2.59 | 2.91 | 3.09 | 2.95 | 2.88 | 2.23
0.0045 µg/ml, genetic background: Δrob | 2.36 | 2.25 | 2.82 | 2.33 | 1.78 | 1.97 | 2.72 | 2.54
0.0045 µg/ml, genetic background: ΔsoxS | 2.89 | 3.13 | 2.92 | 2.55 | 2.47 | 2.84 | 2.97 | 2.74
0.009 µg/ml, genetic background: wild type | 2.263 | 1.89 | 1.94 | 2.3 | 1.93 | 1.34 | 2.67 | 2.002
0.009 µg/ml, genetic background: ΔmarA | 1.25 | 0.9476 | 0.152 | 1.59 | 1.12 | 0.808 | 2.61 | 0.356
0.009 µg/ml, genetic background: Δrob | 0.813 | 0.224 | 0.691 | 0.591 | -0.0218 | 0.255 | 2.4 | 0.851
0.009 µg/ml, genetic background: ΔsoxS | 2.05 | 1.91 | 1.69 | 1.756 | 1.47 | 1.26 | 1.82 | 1.495
0.018 µg/ml, genetic background: wild type | 0.39 | -0.208 | 0.194 | 0.549 | 0.132 | 0.177 | 1.63 | 0.28
0.018 µg/ml, genetic background: ΔmarA | -0.0627 | -0.16 | -0.0173 | 0.0349 | -0.00361 | -0.0179 | 1.67 | 0.0115
0.018 µg/ml, genetic background: Δrob | -0.281 | -0.166 | 0.0362 | -0.0324 | -0.0842 | -0.0348 | 1.2 | 0.0226
0.018 µg/ml, genetic background: ΔsoxS | 0.297 | 0.107 | 0.0968 | 0.0435 | 0.0152 | -0.0112 | 0.0652 | -0.029
0.036 µg/ml, genetic background: wild type | 0.154 | -0.253 | 0.11 | 0.155 | 0.1 | 0.163 | 0.219 | 0.145
0.036 µg/ml, genetic background: ΔmarA | -0.0581 | -0.165 | 0.0147 | 0.0306 | 0.0323 | -0.0177 | 0.0248 | 0.0469
0.036 µg/ml, genetic background: Δrob | -0.301 | -0.0984 | 0.0266 | -0.0576 | -0.118 | 0.0112 | 0.0997 | -0.0207
0.036 µg/ml, genetic background: ΔsoxS | -0.018 | -0.00541 | 0.119 | -0.0362 | -0.0313 | -0.0121 | 0.0311 | 0.0243

CC1(C)S[C@@H]2[C@H](/N=C/N3CCCCCC3)C(=O)N2[C@H]1C(=O)O [Mecillinam]
growth
Conditions | reporter plasmid: EVC | reporter plasmid: acrABp | reporter plasmid: marRABp | reporter plasmid: micFp | reporter plasmid: ompFp | reporter plasmid: robp | reporter plasmid: soxSp | reporter plasmid: tolCp
0.0081 µg/ml, genetic background: wild type | 3.07 | 3 | 3.11 | 3.08 | 2.9 | 3.19 | 2.96 | 2.92
0.0081 µg/ml, genetic background: ΔmarA | 3.13 | 4.02 | 3.47 | 2.94 | 3.36 | 3.28 | 2.96 | 2.88
0.0081 µg/ml, genetic background: Δrob | 2.93 | 3.357 | 3.12 | 3.2 | 2.44 | 2.831 | 3.03 | 3.34
0.0081 µg/ml, genetic background: ΔsoxS | 3.02 | 3.26 | 3.37 | 2.94 | 3.25 | 3.36 | 3.3 | 3.13
0.016 µg/ml, genetic background: wild type | 2.79 | 2.46 | 2.68 | 2.81 | 2.8 | 2.87 | 2.86 | 2.64
0.016 µg/ml, genetic background: ΔmarA | 2.68 | 3.05 | 2.81 | 2.51 | 2.69 | 2.98 | 2.65 | 2.59
0.016 µg/ml, genetic background: Δrob | 2.36 | 2.64 | 2.6 | 2.69 | 2 | 2.31 | 2.89 | 2.48
0.016 µg/ml, genetic background: ΔsoxS | 2.65 | 2.69 | 3.08 | 2.46 | 2.76 | 3.08 | 2.83 | 2.81
0.033 µg/ml, genetic background: wild type | 1.92 | 1.37 | 1.45 | 1.71 | 1.71 | 1.62 | 2.5 | 1.4
0.033 µg/ml, genetic background: ΔmarA | 0.996 | 0.891 | 1.01 | 1.62 | 1.29 | 1.474 | 2.71 | 0.95
0.033 µg/ml, genetic background: Δrob | 1.35 | 1.01 | 0.658 | 0.847 | 0.408 | 0.861 | 2.36 | 0.831
0.033 µg/ml, genetic background: ΔsoxS | 1.84 | 1.53 | 2.4 | 2.44 | 2.34 | 2.48 | 2.37 | 2.42
0.065 µg/ml, genetic background: wild type | 0.0229 | -0.454 | 0.0729 | -0.000943 | -0.00847 | 0.0821 | 0.0515 | 0.09385
0.065 µg/ml, genetic background: ΔmarA | -0.0861 | -0.0467 | 0.0079 | -0.0717 | -0.0986 | -0.00582 | -0.0387 | -0.00998
0.065 µg/ml, genetic background: Δrob | -0.306 | -0.00874 | 0.0341 | -0.0463 | -0.0778 | 0.0467 | 0.0459 | -0.0415
0.065 µg/ml, genetic background: ΔsoxS | 0.0743 | 0.00471 | 0.113 | -0.0317 | 0.0535 | -0.0365 | -0.0421 | -0.0618
